These results are taken from paper PMC10786878.

The chains behind the UniProt entries cited, without tags or fusion partners. Where a name states a change or a piece, a line headed by the entry shows the natural chain unless it says otherwise. Residues count along the entry.
UniProt P05305: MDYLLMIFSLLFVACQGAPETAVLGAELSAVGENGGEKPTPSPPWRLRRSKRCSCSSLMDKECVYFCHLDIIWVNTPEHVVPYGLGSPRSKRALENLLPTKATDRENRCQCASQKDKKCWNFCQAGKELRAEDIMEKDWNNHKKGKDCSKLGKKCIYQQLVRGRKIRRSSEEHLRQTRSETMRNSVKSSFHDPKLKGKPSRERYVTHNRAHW
UniProt Q14315: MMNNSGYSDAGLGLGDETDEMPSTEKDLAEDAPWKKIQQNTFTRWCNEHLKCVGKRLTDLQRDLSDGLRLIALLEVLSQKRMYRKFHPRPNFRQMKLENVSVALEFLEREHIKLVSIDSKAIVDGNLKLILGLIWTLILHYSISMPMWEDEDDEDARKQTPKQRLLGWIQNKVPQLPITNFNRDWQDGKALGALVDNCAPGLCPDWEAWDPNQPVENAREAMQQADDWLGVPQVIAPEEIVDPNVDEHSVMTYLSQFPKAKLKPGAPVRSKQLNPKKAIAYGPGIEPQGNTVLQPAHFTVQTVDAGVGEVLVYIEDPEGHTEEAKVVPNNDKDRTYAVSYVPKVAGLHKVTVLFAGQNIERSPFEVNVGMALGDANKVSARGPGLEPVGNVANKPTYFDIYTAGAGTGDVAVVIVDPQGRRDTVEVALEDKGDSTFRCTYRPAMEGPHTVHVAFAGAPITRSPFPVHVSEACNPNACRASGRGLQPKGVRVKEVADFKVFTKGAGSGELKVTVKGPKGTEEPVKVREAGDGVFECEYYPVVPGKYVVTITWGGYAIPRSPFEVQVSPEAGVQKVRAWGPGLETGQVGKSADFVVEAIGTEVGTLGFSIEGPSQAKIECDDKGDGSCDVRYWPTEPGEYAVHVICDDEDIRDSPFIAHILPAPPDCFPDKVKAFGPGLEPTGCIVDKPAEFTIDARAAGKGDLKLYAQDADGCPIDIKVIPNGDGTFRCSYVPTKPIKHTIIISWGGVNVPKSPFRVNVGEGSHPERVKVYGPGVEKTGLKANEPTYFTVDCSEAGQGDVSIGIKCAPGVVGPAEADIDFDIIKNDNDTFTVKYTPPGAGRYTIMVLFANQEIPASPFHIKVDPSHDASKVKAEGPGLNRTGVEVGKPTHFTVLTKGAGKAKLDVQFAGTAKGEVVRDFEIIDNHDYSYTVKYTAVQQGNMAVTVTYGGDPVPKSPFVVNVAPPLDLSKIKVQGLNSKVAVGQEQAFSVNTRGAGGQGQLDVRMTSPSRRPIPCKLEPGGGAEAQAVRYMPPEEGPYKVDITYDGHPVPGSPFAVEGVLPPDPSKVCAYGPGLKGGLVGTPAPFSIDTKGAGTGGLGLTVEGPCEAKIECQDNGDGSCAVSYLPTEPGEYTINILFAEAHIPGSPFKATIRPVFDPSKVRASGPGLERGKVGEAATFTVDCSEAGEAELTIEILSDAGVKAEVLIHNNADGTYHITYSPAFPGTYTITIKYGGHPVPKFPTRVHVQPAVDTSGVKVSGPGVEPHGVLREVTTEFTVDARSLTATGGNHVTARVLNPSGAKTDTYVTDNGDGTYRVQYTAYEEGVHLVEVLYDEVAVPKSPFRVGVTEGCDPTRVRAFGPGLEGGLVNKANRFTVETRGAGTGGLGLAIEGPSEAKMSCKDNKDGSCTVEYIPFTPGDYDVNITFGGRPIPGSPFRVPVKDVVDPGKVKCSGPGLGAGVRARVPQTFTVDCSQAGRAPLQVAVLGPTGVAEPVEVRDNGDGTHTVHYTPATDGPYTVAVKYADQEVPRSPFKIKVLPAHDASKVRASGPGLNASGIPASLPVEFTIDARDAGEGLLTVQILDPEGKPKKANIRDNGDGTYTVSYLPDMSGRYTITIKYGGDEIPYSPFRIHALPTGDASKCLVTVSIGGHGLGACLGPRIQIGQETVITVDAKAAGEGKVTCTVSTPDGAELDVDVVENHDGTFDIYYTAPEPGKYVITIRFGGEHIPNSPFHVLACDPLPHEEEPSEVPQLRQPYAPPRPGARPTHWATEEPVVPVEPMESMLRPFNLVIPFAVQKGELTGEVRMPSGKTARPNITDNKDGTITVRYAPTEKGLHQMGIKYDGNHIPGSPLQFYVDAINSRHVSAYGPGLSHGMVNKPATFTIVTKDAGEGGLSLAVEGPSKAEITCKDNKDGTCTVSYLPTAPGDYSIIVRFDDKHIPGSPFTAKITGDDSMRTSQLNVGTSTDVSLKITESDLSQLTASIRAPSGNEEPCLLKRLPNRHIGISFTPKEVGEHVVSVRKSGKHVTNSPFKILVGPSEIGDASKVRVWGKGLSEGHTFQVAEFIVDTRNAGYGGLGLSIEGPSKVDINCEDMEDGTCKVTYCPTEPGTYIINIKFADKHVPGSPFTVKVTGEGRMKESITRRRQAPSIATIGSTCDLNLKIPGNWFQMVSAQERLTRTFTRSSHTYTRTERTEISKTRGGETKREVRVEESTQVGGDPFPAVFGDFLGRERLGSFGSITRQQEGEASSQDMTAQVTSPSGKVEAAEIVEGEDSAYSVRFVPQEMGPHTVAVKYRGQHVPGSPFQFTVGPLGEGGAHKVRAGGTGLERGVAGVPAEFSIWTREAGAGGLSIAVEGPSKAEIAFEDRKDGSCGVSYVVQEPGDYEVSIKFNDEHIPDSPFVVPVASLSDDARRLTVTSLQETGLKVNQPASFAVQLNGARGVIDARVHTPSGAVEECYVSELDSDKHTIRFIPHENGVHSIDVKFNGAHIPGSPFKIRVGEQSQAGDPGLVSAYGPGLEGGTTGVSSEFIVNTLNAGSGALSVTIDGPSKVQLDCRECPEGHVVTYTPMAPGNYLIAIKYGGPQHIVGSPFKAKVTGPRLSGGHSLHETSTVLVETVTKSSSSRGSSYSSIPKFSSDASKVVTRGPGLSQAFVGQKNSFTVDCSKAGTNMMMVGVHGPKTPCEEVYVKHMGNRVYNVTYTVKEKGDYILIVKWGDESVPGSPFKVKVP
UniProt P28300: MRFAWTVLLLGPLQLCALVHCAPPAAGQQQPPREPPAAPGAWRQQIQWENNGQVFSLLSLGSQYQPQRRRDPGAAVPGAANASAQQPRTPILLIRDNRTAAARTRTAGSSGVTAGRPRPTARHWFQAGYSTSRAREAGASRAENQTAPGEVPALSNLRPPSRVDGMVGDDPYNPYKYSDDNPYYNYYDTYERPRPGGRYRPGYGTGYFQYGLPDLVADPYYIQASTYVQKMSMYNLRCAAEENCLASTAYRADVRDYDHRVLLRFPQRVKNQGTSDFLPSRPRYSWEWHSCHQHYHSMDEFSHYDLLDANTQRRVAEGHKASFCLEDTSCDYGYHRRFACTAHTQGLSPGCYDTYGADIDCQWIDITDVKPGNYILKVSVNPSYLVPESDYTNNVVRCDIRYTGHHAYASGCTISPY
UniProt P11387: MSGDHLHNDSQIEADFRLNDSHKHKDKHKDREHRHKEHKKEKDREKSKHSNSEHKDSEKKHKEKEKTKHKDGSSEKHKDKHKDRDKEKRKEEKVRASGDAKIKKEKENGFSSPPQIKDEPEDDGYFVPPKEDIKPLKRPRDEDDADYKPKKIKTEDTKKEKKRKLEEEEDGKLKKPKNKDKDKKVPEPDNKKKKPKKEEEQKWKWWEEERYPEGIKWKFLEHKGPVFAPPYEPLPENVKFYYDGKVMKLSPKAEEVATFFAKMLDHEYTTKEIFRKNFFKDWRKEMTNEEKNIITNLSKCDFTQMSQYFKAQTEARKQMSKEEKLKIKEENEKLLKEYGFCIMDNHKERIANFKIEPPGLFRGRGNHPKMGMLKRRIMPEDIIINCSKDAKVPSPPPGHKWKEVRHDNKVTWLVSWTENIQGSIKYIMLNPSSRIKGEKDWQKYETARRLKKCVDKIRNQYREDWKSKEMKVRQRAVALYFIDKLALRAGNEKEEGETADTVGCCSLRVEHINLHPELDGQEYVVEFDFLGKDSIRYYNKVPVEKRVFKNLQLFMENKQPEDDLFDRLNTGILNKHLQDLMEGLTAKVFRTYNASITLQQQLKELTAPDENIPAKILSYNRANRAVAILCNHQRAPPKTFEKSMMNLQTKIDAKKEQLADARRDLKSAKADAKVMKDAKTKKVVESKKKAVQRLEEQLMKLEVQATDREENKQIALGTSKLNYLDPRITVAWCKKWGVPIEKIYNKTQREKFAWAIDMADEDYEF
UniProt P02751, residues 32-2477: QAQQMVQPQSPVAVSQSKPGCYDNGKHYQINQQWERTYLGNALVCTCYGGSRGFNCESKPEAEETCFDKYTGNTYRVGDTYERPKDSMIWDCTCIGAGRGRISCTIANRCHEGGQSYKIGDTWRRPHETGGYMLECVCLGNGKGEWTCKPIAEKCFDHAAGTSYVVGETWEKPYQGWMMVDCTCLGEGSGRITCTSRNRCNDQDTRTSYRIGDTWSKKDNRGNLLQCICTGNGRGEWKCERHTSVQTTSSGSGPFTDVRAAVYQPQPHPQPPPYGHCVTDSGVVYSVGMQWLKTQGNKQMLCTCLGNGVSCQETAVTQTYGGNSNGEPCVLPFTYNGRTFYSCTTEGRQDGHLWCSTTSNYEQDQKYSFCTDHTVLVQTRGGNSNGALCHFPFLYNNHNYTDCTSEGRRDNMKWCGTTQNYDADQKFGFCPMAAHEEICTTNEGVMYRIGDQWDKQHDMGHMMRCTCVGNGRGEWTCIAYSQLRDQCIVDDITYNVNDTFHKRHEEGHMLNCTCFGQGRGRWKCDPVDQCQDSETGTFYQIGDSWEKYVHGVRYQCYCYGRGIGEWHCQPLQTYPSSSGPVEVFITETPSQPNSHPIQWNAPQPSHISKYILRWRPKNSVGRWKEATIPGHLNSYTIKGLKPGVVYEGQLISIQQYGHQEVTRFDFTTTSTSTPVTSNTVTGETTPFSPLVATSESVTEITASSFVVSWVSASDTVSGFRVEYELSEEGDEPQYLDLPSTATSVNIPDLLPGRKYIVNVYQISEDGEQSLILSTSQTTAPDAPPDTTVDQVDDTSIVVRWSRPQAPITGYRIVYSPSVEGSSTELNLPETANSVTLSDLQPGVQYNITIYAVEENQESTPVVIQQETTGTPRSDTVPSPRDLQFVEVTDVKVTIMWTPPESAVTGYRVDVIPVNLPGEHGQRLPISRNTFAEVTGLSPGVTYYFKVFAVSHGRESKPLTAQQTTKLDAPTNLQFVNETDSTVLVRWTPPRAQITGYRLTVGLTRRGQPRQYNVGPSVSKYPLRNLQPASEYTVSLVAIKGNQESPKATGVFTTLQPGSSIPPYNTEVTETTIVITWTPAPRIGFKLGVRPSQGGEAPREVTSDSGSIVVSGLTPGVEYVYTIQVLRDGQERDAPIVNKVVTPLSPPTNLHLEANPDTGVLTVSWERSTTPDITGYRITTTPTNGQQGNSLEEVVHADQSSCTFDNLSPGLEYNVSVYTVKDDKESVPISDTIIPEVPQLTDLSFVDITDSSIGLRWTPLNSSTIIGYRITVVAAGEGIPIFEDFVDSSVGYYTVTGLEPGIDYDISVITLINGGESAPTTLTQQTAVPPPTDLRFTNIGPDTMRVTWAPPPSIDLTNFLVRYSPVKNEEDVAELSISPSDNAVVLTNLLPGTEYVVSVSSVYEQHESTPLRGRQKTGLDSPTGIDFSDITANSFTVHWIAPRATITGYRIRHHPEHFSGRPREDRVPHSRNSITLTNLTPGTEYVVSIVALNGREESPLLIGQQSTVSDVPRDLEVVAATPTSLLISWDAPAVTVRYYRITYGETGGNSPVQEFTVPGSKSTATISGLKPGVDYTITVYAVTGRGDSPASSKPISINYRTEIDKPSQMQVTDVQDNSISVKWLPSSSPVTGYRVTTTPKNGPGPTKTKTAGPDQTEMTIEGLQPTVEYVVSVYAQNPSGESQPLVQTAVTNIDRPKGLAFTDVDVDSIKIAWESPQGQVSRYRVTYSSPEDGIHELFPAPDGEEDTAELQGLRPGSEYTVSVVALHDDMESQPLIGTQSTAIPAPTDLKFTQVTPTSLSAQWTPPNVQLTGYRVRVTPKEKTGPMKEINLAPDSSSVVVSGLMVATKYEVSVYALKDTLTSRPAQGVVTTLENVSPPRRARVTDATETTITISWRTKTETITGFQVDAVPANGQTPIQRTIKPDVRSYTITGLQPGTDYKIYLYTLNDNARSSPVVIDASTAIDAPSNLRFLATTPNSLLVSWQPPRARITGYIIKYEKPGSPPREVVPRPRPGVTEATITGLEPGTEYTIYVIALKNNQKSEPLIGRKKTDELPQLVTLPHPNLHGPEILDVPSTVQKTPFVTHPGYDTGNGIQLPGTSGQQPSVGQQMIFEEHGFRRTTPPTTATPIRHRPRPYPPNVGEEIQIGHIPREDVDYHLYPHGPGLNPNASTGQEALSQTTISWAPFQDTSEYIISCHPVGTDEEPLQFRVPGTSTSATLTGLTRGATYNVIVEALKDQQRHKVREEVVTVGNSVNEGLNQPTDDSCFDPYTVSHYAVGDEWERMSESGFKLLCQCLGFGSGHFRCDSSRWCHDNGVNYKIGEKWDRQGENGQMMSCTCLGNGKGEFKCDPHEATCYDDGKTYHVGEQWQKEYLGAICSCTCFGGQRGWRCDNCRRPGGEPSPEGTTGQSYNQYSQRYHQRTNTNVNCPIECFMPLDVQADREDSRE

Assay [1] addresses T1, JCAD (human (endogenous in HAEC and HCASMC)) (UniProt Q9P266).
T1 sequence: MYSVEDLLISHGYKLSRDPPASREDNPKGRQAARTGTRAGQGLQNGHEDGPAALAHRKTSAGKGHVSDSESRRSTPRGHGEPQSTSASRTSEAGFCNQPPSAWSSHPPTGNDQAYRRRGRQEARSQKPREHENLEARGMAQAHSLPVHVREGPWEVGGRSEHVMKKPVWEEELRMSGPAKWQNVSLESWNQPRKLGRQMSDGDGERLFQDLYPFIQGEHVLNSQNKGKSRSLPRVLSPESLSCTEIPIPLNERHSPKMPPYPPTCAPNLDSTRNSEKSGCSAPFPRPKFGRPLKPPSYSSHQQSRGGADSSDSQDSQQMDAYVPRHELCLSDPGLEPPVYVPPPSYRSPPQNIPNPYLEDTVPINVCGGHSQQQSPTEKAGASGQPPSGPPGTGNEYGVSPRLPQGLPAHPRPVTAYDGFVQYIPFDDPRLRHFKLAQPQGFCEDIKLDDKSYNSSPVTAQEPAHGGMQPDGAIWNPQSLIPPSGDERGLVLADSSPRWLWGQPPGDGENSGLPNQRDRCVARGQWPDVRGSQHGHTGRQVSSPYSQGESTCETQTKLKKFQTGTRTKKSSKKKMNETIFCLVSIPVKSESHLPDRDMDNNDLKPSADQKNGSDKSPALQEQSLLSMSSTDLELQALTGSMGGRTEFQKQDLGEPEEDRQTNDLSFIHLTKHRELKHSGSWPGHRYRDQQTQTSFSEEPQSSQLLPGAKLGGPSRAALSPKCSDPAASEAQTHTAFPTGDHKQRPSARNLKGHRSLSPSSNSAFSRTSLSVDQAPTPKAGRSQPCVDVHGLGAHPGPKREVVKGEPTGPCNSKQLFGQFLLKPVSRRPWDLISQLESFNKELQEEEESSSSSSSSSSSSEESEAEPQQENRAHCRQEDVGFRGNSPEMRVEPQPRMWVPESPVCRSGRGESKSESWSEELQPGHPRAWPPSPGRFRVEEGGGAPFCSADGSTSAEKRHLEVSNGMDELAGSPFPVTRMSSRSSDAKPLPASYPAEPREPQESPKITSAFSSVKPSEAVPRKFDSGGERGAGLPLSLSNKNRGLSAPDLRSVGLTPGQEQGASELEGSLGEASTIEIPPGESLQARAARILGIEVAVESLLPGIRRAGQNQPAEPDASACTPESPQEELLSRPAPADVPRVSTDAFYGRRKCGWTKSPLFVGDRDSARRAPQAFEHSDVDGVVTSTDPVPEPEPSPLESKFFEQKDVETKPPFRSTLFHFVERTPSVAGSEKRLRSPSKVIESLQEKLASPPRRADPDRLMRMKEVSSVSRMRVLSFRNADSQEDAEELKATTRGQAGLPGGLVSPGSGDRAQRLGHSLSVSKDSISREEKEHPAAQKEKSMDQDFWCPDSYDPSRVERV
Kind of assay: affinity purification with mass spectrometry; IP of the index protein (antibody to the endogenous bait vs isotype IgG, or anti-FLAG M2 beads for the 3xFLAG-tagged bait vs mock transfection) from HAEC (EC) lysate, overnight at 4 °C; iTRAQ or TMT LC-MS/MS; interactor: log2 FC >0 and FDR ≤0.1.

The target of assay [2] is EDN1 (human) (UniProt P05305). The assay can be described thus: affinity purification with mass spectrometry; IP of the index protein from HAEC or HCASMC lysate; the sentence does not tell in which of the two cell types the interactor was found; interactor: log2 FC >0 and FDR ≤0.1.
Assay [3] deals with EDN1 (human) (UniProt P05305). Kind of assay: affinity purification with mass spectrometry; IP of the index protein (antibody to the endogenous bait vs isotype IgG, or anti-FLAG M2 beads for the 3xFLAG-tagged bait vs mock transfection) from HCASMC (SMC) lysate, overnight at 4 °C; iTRAQ or TMT LC-MS/MS; interactor: log2 FC >0 and FDR ≤0.1.
The target of assay [4] is T2, PLPP3 (human) (UniProt O14495).
T2 sequence: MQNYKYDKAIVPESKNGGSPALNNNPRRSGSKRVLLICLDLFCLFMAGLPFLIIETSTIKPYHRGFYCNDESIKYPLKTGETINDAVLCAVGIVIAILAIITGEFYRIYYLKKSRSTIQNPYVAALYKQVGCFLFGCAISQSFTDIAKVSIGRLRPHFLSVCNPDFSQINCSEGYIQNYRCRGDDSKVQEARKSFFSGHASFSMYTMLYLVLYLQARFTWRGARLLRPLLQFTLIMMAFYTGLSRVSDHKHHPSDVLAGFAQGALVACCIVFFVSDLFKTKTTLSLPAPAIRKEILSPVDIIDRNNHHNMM
The assay can be described thus: affinity purification with mass spectrometry; IP of the index protein (antibody to the endogenous bait vs isotype IgG, or anti-FLAG M2 beads for the 3xFLAG-tagged bait vs mock transfection) from HAEC (EC) lysate, overnight at 4 °C; iTRAQ or TMT LC-MS/MS; interactor: log2 FC >0 and FDR ≤0.1.

Assay [5] deals with T2, PLPP3 (human). Kind of assay: affinity purification with mass spectrometry; IP of the index protein (antibody to the endogenous bait vs isotype IgG, or anti-FLAG M2 beads for the 3xFLAG-tagged bait vs mock transfection) from HCASMC (SMC) lysate, overnight at 4 °C; iTRAQ or TMT LC-MS/MS; interactor: log2 FC >0 and FDR ≤0.1.

Results are given in words; binding and its absence hold for the method and conditions named. Binding seen in cells or lysates may run through a third protein. A yes stands for co-enrichment or nearness to the bait. Other partners may have been found.

Consider FLNC (from UniProt Q14315 1-2725), for which the binding result in assay [1] was “binds”.

For MAP4 (from UniProt P27816 1-1152), the binding result with EDN1 (human) [2] is “binds”.

On to LOX (from UniProt P28300), for which the binding entry in the assay with EDN1 (human) [3] is “binds”.

Regarding TOP1 (from UniProt P11387 1-765), in the assay with EDN1 (human) [2], the binding result is given as “binds”.

With FN1 (from UniProt P02751 32-2477), the binding result with PLPP3 (human) [4], in the assay with EDN1 (human) [3] and with PLPP3 (human) [5] was “binds” throughout.
